Test results from the supplement of paper PMC10849652.
The list shows a part of the results.

Protein sequences, listed by entry. Tags and fused reporters are not part of them. Lines headed by an entry give the natural chain unless they say otherwise; changes in a name come on top.
UniProt Q8IUG5: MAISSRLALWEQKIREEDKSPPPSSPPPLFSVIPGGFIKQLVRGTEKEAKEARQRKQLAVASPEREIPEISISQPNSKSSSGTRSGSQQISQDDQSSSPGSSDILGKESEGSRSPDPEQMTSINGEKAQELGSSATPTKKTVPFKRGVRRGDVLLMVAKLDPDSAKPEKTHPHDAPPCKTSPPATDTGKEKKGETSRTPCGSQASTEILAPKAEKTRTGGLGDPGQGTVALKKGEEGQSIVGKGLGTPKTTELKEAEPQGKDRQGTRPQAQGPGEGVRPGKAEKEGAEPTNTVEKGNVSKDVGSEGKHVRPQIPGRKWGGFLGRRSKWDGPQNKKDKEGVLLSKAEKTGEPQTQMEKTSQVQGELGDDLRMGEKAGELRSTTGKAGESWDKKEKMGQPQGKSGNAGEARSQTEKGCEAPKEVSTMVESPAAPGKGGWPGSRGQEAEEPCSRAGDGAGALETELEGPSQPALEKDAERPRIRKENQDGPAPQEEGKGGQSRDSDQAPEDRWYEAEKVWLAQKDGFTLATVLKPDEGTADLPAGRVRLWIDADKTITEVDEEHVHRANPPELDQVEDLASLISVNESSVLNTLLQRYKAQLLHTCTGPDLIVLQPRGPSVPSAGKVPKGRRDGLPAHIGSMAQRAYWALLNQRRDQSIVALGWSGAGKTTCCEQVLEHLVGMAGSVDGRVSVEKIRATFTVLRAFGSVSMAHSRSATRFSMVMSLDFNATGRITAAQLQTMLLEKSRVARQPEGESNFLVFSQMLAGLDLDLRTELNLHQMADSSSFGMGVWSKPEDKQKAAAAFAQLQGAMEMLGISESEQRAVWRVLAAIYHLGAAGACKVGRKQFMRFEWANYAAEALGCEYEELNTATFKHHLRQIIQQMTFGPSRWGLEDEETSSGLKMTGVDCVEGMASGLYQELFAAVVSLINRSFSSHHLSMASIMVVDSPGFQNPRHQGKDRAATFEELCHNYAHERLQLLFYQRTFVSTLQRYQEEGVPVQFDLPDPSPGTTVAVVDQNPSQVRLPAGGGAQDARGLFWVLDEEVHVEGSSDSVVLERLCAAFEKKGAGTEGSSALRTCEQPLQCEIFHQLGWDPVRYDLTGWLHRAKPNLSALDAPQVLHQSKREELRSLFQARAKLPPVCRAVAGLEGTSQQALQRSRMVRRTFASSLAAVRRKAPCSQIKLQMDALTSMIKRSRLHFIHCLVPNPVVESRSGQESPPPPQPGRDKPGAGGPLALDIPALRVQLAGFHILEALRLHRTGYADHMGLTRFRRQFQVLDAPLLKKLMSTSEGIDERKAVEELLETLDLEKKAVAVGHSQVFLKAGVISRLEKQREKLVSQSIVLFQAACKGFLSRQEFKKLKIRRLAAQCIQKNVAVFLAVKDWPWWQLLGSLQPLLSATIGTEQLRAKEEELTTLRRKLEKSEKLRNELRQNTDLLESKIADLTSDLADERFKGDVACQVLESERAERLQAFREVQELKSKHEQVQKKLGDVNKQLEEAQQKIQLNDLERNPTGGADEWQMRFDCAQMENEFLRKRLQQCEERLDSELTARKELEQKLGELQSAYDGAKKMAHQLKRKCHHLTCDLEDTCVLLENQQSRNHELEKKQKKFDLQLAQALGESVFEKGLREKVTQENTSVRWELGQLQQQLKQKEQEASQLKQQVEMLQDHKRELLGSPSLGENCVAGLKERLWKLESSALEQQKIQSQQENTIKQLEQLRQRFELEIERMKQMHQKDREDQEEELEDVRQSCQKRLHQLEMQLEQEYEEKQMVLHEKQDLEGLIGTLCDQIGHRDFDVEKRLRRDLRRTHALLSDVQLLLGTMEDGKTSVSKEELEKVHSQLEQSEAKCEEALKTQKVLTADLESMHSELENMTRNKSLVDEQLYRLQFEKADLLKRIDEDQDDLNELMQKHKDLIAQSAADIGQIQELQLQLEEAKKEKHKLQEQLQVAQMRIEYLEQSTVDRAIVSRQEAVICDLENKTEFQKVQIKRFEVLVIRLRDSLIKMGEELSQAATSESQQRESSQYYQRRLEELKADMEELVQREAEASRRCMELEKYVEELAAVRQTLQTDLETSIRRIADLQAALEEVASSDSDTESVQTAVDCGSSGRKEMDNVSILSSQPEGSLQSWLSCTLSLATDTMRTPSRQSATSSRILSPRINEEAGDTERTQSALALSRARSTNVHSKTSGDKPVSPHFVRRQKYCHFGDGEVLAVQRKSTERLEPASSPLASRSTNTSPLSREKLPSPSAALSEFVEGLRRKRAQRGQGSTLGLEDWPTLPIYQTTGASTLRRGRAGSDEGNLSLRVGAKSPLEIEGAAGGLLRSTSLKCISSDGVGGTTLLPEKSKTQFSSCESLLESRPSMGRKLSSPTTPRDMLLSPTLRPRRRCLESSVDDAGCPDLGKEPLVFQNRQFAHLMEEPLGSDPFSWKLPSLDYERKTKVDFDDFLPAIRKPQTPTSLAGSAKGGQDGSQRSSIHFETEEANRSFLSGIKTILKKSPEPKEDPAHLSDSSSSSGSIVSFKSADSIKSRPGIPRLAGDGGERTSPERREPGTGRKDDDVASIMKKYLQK
UniProt P00414, whole entry, looked up: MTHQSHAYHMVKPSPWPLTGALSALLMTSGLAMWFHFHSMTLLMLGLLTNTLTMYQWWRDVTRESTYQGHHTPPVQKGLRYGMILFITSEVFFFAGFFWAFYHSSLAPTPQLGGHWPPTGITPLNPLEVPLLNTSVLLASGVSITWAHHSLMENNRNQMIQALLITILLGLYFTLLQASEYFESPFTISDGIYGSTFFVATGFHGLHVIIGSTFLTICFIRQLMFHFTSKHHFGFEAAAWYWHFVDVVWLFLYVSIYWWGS
UniProt Q9H6N6: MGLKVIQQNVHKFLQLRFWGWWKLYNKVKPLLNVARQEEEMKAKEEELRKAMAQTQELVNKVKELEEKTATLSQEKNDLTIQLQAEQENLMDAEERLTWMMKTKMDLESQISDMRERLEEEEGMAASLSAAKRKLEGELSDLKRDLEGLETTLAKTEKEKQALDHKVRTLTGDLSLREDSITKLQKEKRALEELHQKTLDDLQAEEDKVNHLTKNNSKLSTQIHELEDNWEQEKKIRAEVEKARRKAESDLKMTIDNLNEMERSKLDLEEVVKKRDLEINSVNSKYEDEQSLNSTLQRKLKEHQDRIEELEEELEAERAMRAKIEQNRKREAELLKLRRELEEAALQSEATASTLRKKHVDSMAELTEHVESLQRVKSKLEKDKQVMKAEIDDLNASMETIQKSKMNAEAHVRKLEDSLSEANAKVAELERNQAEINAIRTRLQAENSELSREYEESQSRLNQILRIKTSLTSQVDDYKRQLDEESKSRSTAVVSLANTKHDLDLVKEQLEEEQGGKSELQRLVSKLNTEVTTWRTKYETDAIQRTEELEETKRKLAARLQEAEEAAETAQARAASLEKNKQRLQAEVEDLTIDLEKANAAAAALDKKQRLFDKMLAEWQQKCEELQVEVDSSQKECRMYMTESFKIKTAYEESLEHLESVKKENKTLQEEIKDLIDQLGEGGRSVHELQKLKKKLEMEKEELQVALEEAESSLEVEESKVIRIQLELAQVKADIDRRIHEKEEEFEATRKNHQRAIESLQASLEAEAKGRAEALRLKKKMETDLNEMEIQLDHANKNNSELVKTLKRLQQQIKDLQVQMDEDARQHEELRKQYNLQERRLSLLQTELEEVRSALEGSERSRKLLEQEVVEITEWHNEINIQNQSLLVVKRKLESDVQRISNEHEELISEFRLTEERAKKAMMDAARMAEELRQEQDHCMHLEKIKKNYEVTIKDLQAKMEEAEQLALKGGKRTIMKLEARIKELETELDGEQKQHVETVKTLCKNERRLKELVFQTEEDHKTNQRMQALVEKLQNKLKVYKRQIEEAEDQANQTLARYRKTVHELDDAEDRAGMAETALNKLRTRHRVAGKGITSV
UniProt P03928: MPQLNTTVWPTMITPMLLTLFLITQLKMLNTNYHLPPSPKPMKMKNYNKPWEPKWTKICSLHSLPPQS
UniProt P08590, whole entry, looked up: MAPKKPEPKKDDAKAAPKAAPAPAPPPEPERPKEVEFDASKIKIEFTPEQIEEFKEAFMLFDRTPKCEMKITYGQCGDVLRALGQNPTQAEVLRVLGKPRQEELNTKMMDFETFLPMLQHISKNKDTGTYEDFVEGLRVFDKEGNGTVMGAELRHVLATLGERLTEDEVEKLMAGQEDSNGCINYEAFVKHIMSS
UniProt P84157: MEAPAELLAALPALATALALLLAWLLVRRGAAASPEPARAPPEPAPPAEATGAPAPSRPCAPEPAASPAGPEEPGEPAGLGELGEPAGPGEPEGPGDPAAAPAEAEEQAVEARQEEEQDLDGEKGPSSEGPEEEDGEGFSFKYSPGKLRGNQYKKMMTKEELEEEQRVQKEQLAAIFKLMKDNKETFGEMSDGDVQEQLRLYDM
UniProt P46199: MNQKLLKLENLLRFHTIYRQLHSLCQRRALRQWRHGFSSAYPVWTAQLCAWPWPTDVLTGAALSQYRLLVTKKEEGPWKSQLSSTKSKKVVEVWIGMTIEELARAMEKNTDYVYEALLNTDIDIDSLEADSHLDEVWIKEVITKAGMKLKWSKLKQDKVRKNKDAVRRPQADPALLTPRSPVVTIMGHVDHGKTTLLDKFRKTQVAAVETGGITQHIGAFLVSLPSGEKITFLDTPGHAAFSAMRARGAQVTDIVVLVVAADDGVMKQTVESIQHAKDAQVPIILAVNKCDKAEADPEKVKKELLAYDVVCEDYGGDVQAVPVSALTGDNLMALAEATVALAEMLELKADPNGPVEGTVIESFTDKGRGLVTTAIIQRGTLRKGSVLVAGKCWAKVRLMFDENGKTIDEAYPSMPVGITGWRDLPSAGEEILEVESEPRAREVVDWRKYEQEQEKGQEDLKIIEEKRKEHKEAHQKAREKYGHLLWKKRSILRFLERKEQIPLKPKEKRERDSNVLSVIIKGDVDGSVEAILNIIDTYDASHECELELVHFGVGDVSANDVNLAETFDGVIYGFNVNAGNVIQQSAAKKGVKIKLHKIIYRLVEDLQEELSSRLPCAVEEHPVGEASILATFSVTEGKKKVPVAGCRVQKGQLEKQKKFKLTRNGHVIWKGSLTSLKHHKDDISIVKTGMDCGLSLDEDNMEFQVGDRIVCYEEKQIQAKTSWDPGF
UniProt Q6P1R3: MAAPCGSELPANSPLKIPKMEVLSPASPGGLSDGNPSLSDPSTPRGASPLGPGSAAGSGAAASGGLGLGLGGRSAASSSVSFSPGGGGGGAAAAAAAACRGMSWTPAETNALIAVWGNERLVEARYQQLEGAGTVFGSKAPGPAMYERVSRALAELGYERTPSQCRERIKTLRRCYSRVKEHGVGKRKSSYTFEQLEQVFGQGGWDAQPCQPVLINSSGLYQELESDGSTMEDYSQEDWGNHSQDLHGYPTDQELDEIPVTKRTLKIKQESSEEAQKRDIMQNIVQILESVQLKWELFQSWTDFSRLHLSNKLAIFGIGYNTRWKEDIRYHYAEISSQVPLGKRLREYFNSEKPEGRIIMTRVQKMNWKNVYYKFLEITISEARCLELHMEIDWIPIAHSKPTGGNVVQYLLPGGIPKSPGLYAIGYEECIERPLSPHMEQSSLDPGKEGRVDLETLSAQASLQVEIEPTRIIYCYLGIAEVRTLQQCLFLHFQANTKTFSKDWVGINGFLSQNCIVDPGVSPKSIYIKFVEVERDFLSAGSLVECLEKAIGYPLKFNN
UniProt Q9UJ68: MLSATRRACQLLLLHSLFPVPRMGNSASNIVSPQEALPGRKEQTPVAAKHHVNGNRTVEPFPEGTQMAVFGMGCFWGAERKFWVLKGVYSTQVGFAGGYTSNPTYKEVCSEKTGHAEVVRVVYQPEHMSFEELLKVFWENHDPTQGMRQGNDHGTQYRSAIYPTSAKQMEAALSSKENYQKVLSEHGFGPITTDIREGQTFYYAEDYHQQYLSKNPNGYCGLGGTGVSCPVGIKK
UniProt Q13126: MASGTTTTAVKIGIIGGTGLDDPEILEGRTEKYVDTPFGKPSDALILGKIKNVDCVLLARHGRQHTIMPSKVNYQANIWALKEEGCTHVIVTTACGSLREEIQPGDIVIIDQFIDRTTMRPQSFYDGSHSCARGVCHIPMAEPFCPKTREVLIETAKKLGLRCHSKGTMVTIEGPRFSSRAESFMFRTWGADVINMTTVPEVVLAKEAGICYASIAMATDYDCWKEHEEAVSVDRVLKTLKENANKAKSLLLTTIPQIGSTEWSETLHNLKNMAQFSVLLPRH
UniProt P03891, whole entry, looked up: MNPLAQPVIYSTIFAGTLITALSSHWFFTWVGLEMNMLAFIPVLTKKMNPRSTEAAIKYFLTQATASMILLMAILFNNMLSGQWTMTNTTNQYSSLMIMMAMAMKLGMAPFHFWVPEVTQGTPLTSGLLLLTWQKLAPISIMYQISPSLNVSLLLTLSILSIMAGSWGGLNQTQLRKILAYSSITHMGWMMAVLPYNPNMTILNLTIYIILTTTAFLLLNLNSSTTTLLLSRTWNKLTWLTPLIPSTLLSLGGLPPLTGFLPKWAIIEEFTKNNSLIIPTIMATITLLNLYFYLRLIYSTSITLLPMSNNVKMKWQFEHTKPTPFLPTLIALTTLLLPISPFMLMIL

Legend:
Test in all cases: log2 fold change, soluble protein after heating vs DMSO (PISA); higher = thermal stabilisation; K562 cells, 10 uM, 30 min; active = over 0.2 and 3.5 SD of the protein, either way, in both replicates (recomputed)
[1] = compound: CC1=C(C=C(C=C1)NC(=O)C2=CC(=CC=C2)C(C)(C)C#N)NC3=CC4=C(C=C3)N=CN(C4=O)C
Method in brief: (§1)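 K562 cells at 2×10^6 cells/mL were given 10 μM compound for 30 min. Aliquots then went through 3 min of heating across 48°C-58°C, were pooled, and were extracted in PBS with 0.5% NP-40 at 4°C, and the supernatant after 21,000xg for 90 min was quantified by TMTpro 16plex LC-MS/MS with channel sums equalised. Thermal stability relative to control samples, from duplicates, is given as log2 fold change.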

[2] = compound: CC1=C(C=C(C=C1)NC(=O)C2=CC(=CC=C2)N(C)C)NC(=O)C3=CC=C(C=C3)O
Method in brief: as §1

[3] = compound: CC1=CC=C(C=C1)SC2=C3C=C(SC3=CN=C2)C(=O)N
Method in brief: as §1

[4] = compound: CC1=NC(=CC=C1)C2=C(N=C(N2)C(C)(C)C)C3=CC4=NC=CN=C4C=C3
Method in brief: as §1

[5] = compound: CCCCN(Cc1ccc(C(=O)NO)cc1)C(=O)Nc1ccccc1 [Nexturastat A]
Method in brief: as §1

[6] = compound: CCCS(=O)(=O)Nc1ccc(F)c(C(=O)c2c[nH]c3ncc(-c4ccc(Cl)cc4)cc23)c1F [vemurafenib]
Method in brief: as §1

[7] = compound: CCCS(=O)(=O)Nc1ccc(F)c(C(=O)c2c[nH]c3ncc(Cl)cc23)c1F
Method in brief: as §1

[8] = compound: CCN(CCCOc1ccc2c(Nc3cc(CC(=O)Nc4cccc(F)c4)[nH]n3)ncnc2c1)CCOP(=O)(O)O [barasertib]
Method in brief: as §1

[9] = compound: CC[C@@H]1C(=O)N(C)c2cnc(Nc3ccc(C(=O)NC4CCN(C)CC4)cc3OC)nc2N1C1CCCC1
Method in brief: as §1

[10] = compound: CC[C@@H]1C(=O)N(C)c2cnc(Nc3ccc(C(=O)N[C@H]4CC[C@H](N5CCN(CC6CC6)CC5)CC4)cc3OC)nc2N1C(C)C [volasertib]
Method in brief: as §1

[11] = compound: CC[C@H](C)N1C=C(C2=C(C=C(C=C21)C3=CN=C(C=C3)N4CCNCC4)C(=O)NCC5=C(C=C(NC5=O)C)C)C
Method in brief: as §1

[12] = compound: CC[C@H](C)[C@@H](C(=O)N[C@@H]([C@@H](C)O)C(=O)N[C@@H](CC(C)C)C(=O)[C@]1(CO1)C)NC(=O)[C@H]([C@@H](C)CC)N(C)C(=O)C [epoxomicin]
Method in brief: as §1

[13] = compound: CCn1cc(-c2ccnc3[nH]c(-c4cccc(CN(C)C)c4)cc23)c(-c2ccc(NC(=O)N(C)C)cc2)n1
Method in brief: as §1

[14] = compound: CN(C)CC(=O)Nc1ccc2[nH]c(=O)c3ccccc3c2c1
Method in brief: as §1

[15] = compound: CN(CCOC1=CC=C(C=C1)C[C@H]2C(=O)NC(=O)S2)C3=CC=CC=N3 (racemic) [rosiglitazone]
Method in brief: as §1

[16] = compound: CN1C2=C(C3=C1C(=O)N(N=C3)CC4=CC(=CC=C4)N)SC(=C2)S(=O)C
Method in brief: as §1

[17] = compound: CN1CCC(CNc2ccc3ncc(-c4cccc(OC(F)(F)F)c4)n3n2)CC1
Method in brief: as §1

[18] = compound: CCN(CC)Cc1ccc2cc(COC(=O)Nc3ccc(C(=O)NO)cc3)ccc2c1 [givinostat]
Method in brief: as §1

[19] = compound: CCn1c(C(=O)N(C2CC2)C2CC2)cc2c3c(ncn3C)c(Nc3cc(C)n(C)n3)nc21
Method in brief: as §1

[20] = compound: CCCc1cc(C)[nH]c(=O)c1CNC(=O)c1cc(-c2ccnc(N3CCN(C)CC3)c2)cc2c1cnn2C(C)C
Method in brief: as §1

Measured: log2 fold change

MRPS14 (UniProt O60783)
inactive: [1] -0.015 | [2] 0.002 | [3] -0.028 | [4] -0.063 | [5] 0.129 | [6] -0.012 | [7] -0.048 | [8] 0.081 | [9] 0.02 | [10] 0.056 | [11] -0.085 | [12] -0.068 | [13] 0.003 | [14] -0.003 | [15] -0.024 | [16] 0.032 | [17] -0.071

MYO18B isoform 3 (UniProt Q8IUG5)
inactive: [1] -0.187 | [2] 0.014 | [5] -0.222 | [18] 0.113 | [8] 0.117 | [9] -0.128 | [11] -0.112 | [12] -0.382 | [19] -0.14 | [15] 0

MT-CO3 (UniProt P00414)
inactive: [1] -0.075 | [2] 0.026 | [3] 0.021 | [4] 0.12 | [6] 0.175 | [7] 0.216 | [20] -0.386 | [10] -0.004 | [14] 0.181 | [16] -0.164

MYH16 (UniProt Q9H6N6)
inactive: [1] 0.484 | [3] 0.143 | [6] 0.155 | [7] 0.216 | [20] 0.12 | [18] -0.072 | [8] -0.069 | [10] 0.077 | [11] 0.156 | [13] -0.067 | [14] 0.011 | [17] 0.26
active: [4] 0.724

MYD88 isoform 6 (UniProt Q99836)
inactive: [1] -0.091 | [3] -0.049 | [4] 0.064 | [5] 0.176 | [6] 0.347 | [7] -0.143 | [20] 0.274 | [8] -0.248 | [10] 0.866 | [11] 0.084 | [12] 0.015 | [13] -0.1 | [14] -0.039 | [15] -0.456 | [17] -0.114

MTO1 isoform 6 (UniProt Q9Y2Z2)
inactive: [1] -0.142 | [2] -0.021 | [3] 0.033 | [4] -0.092 | [5] 0.142 | [6] 0.019 | [7] -0.002 | [20] 0.099 | [18] 0.048 | [9] -0.008 | [10] -0.205 | [11] 0 | [12] -0.104 | [19] 0.028 | [13] -0.117 | [14] 0.048 | [16] -0.012 | [17] 0.013

MTA3 (UniProt Q9BTC8)
inactive: [1] -0.034 | [3] 0.005 | [5] 0.311 | [7] 0.047 | [18] 0 | [9] 0.023 | [10] 0.002 | [12] 0.14 | [19] 0.009 | [13] -0.116 | [16] 0.103 | [17] -0.047

MTCH2 (UniProt E9PIE4)
inactive: [1] 0.02 | [3] -0.014 | [4] 0.036 | [5] -0.115 | [6] 0.045 | [7] -0.022 | [20] 0.01 | [18] 0.009 | [8] -0.032 | [9] -0.025 | [10] 0.023 | [11] 0.006 | [12] 0.036 | [19] 0.017 | [14] 0.029 | [15] -0.009 | [16] -0.083

MT-ATP8 (UniProt P03928)
inactive: [1] 0.18 | [4] 0.142 | [5] -0.065 | [20] -0.087 | [18] -0.024 | [8] -0.03 | [9] -0.013 | [11] -0.005 | [12] 0.094 | [19] 0.015 | [13] 0.063 | [15] 0.027 | [17] 0.003

MYL3 (UniProt P08590)
inactive: [2] -0.247 | [3] 0.049 | [4] -0.113 | [7] -0.005 | [20] 0.011 | [18] 0.008 | [8] 0.045 | [9] 0.044 | [10] 0.136 | [11] -0.014 | [19] 0.019 | [13] 0.016 | [15] -0.102 | [16] 0.039 | [17] -0.027

MYH4 (UniProt Q9Y623)
inactive: [9] 0.91

MXRA7 isoform 3 (UniProt P84157)
inactive: [2] 0.178 | [3] -0.174 | [7] 0.193 | [10] -0.01

MYO19 (UniProt Q96H55)
inactive: [2] 0.069 | [3] 0.091 | [4] -0.054 | [5] 0.382 | [6] -0.082 | [18] 0.143 | [8] 0.039 | [10] 0.007 | [11] 0.011 | [12] 0.097 | [13] -0.215 | [14] -0.081 | [16] 0.076 | [17] 0.404
active: [7] 0.554

MTHFD2L (UniProt Q9H903)
inactive: [1] 0.041 | [5] 0.285 | [6] 0.004 | [20] 0.171 | [12] -0.051 | [14] 0.122 | [16] 0.023

MTIF2 (UniProt P46199)
inactive: [1] -0.178 | [5] 0.091 | [12] 0.043

MSANTD2 (UniProt Q6P1R3)
inactive: [1] -0.024 | [5] 0.239 | [6] -0.062 | [9] -0.071 | [12] -0.273 | [14] 0.004 | [16] 0.13

MRPS36 (UniProt D6R941)
inactive: [1] -0.68 | [5] -0.043 | [11] -0.068 | [12] -0.086

MTURN (UniProt Q8N3F0)
inactive: [3] 0.106 | [4] -0.037 | [6] 0.258 | [7] 0.025 | [20] 0.006 | [8] 0.16 | [10] -0.156 | [14] 0.074 | [15] 0.003

Fetched one by one from the list above (2):
MYL3 (UniProt P08590)
inactive: [2] -0.247 | [3] 0.049 | [4] -0.113 | [7] -0.005 | [20] 0.011 | [18] 0.008 | [8] 0.045 | [9] 0.044 | [10] 0.136 | [11] -0.014 | [19] 0.019 | [13] 0.016 | [15] -0.102 | [16] 0.039 | [17] -0.027

MYO19 (UniProt Q96H55)
inactive: [2] 0.069 | [3] 0.091 | [4] -0.054 | [5] 0.382 | [6] -0.082 | [18] 0.143 | [8] 0.039 | [10] 0.007 | [11] 0.011 | [12] 0.097 | [13] -0.215 | [14] -0.081 | [16] 0.076 | [17] 0.404
active: [7] 0.554

Further entries follow.

MYH3 (UniProt P11055)
inactive: [18] 0.03 | [8] -0.019 | [9] 0.256 | [11] -0.408 | [19] 0.218 | [13] 0.054 | [15] 0.098 | [17] -0.104

MTRES1 (UniProt Q9P0P8)
inactive: [3] 0.059 | [5] 0.06 | [7] -0.058 | [20] -0.063 | [18] 0.067 | [9] -0.066 | [10] -0.072 | [12] -0.024 | [19] 0.036

MTHFSD (UniProt Q2M296)
inactive: [20] -0.137 | [16] 0.21

MSRA (UniProt Q9UJ68)
inactive: [3] -0.168 | [7] 0.024 | [10] -0.176 | [16] 0.095

MTAP isoform 2 (UniProt Q13126)
inactive: [1] -0.067 | [4] -0.06 | [8] 0.134 | [13] -0.038 | [15] 0.121 | [16] -0.008 | [17] -0.004

MT-ND2 (UniProt P03891)
inactive: [2] 0.109 | [3] -0.047 | [4] 0.062 | [6] 0.065 | [7] 0.198 | [20] -0.123 | [18] 0.006 | [8] 0.079 | [10] -0.021 | [11] -0.113 | [13] 0.106 | [14] 0.195 | [16] -0.13 | [17] 0.033

MYH6 (UniProt P13533)
inactive: [3] -0.028 | [5] 0.385 | [7] 0.009 | [20] 0.085 | [18] 0.198 | [10] -0.103 | [11] -0.129 | [12] 0.001 | [19] -0.06 | [13] 0.051 | [16] -0.033 | [17] -0.101

MTHFD1L (UniProt B7ZM99)
inactive: [2] 0.015 | [3] -0.012 | [6] 0.018 | [7] 0.056 | [20] -0.096 | [18] -0.005 | [8] -0.03 | [9] 0.027 | [10] -0.11 | [11] 0.004 | [19] 0.021 | [13] -0.137 | [14] 0.053 | [15] 0.097 | [16] -0.045 | [17] -0.074

MYH15 (UniProt Q9Y2K3)
inactive: [1] 0.081 | [20] -0.138 | [8] 0.113 | [9] -0.045 | [11] 0.111 | [15] 0.711
